Where “and” joins values, the source holds several entries; their conditions need not be identical. Equal entries are not always repeated. Out of some 410,000 compounds screened, about 18,000 (4.4%) were called active. The shares of active, inactive and inconclusive entries below differ from those in the screen. Rule as the data show it: active = activity change below about -60%; inconclusive = no clear call, values can overlap the other calls; inactive = above about -39%.
Assay: qHTS Assay for inhibitors of the human cytomegalovirus (HCMV)
Conditions: HFF cells, HCMV-luciferase reporter, 72 h; at 57.5 µM; stronger effect = lower value
How it was run: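 Luciferase read-out from HCMV-luciferase-infected HFFs (MOI 1 PFU/cell) 72 h post infection at 37C; compounds added after 16 h cell attachment; activity normalized between buffer-only basal and Salinomycin (10uM) inhibitor controls.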
% is scaled to controls: 0 for no effect and ±100 for the full control effect.

| SMILES | activity change, negative = inhibition |
| --- | --- |
| Cc1ccc(C(=O)OCCn2cc(C#N)c(=O)[nH]c2=O)cc1 | inconclusive: -41.8% |
| CC(O)CNc1nc(Cl)c(C#N)s1 (stereo unspecified) | inconclusive: -51.6% |
| CCOc1ccccc1OCCCC(=O)N1CCN(S(=O)(=O)c2ccccc2C#N)CC1 | inconclusive: -44.2% |
| NC(=S)N/N=C/c1c(O)ccc2ccccc12 | inconclusive: 0% |
| CN1CCN(c2ccc(NC(=O)N3CCc4ccccc43)cc2)CC1 | active: -78% |
| COc1ccc(CN(CCC(C)C)S(=O)(=O)c2ccccc2Br)cc1 | inconclusive: -43.9% |
| CCC(C)(C)n1nnnc1C(c1ccc(C)cc1)N1CCC(C)CC1 (stereo unspecified) | inconclusive: -59% |
| Cc1cc(C(=O)N/N=C/c2cc(Cl)cc([N+](=O)[O-])c2O)c2ccccc2n1 | inconclusive: -51.6% |
| Cc1cccc(NC(=O)CN2CCN(C(=O)CNC(=O)c3ccc(-c4ccccc4)cc3)CC2)c1C | inconclusive: -47% |
| CCOC(=O)c1ccc(Nc2nc(=O)c3cccnc3s2)cc1 | inconclusive: -47% |
| COCCCNC(=O)Cn1nnc(-c2ccccc2NC(=O)c2ccccc2F)n1 | inconclusive: -40.6% |
| COc1ccc2nc(C)cc(SCC(=O)N/N=C/c3ccc(O)c(O)c3)c2c1 | inconclusive: -49.6% |
| CCCc1c(CC)c(=N)c2ccccc2n1C | active: -86.7% |
| CCn1cc(S(=O)(=O)c2ccccc2)c(=O)c2cc(F)c(N3CCCCCC3)cc21 | inconclusive: -46.5% |
| S=C(NCc1cccnc1)Nc1cccc(Cl)c1 | inactive: -6.4% |
| O=S(=O)(O)c1nc2ccccc2n1Cc1ccccc1 | inactive: -13.1% |
| O=C(Nc1ccnn1C1CCN(C(=O)c2ccccc2C(F)(F)F)CC1)C1CC1 | active: -78.4% |
| Cc1ccc2c(c1)N(CC(=O)NCc1cccc(Cl)c1)C(=O)c1cccnc1O2 | inconclusive: -58.4% |
| Cc1oc(S(=O)(=O)N2CCCC2)cc1C(=O)Nc1ccc(F)cc1 | inconclusive: -59.7% |
| COc1ccccc1Cn1c(CNS(=O)(=O)c2c(C)cc(C)cc2C)nc2cccnc21 | inconclusive: -41.7% |
| CN1CCN(CC(=O)Nc2ccccc2Sc2ccccc2)CC1 | inconclusive: -40.4% |
| O=S(=O)(c1ccc(Cl)cc1)N1CCN(CCc2ccncc2)CC1 | inconclusive: -53.8% |

2 compounds picked at random from those above:

| SMILES | activity change, negative = inhibition |
| --- | --- |
| COCCCNC(=O)Cn1nnc(-c2ccccc2NC(=O)c2ccccc2F)n1 | inconclusive: -40.6% |
| COc1ccccc1Cn1c(CNS(=O)(=O)c2c(C)cc(C)cc2C)nc2cccnc21 | inconclusive: -41.7% |

A draw from above in order of count of non-hydrogen atoms, rising.

| SMILES | activity change, negative = inhibition |
| --- | --- |
| S=C(NCc1cccnc1)Nc1cccc(Cl)c1 | inactive: -6.4% |
| CN1CCN(CC(=O)Nc2ccccc2Sc2ccccc2)CC1 | inconclusive: -40.4% |
| CCC(C)(C)n1nnnc1C(c1ccc(C)cc1)N1CCC(C)CC1 (stereo unspecified) | inconclusive: -59% |

Next part.

| SMILES | activity change, negative = inhibition |
| --- | --- |
| COc1ccc(CNC(=O)COC(=O)c2cncc(Br)c2)cc1 | inconclusive: -57.7% |
| Cc1cccc(N2C(=O)C(Cl)=C(Nc3c(C)n(C)n(-c4ccccc4)c3=O)C2=O)c1C | inconclusive: -44.4% |
| CCOC(=O)C1CCCN(C(=O)C2CCN(S(=O)(=O)c3ccc(Cl)c(C(F)(F)F)c3)CC2)C1 (stereo unspecified) | inconclusive: -46.5% |
| O=C(Nc1cccn2nc(COCCO)nc12)C(c1ccccc1)c1ccccc1 | inactive: -12.8% |
| CSc1ccc(Nc2nn(-c3ccc(OC(F)(F)F)cc3)nc2C(C)=O)cc1 | inconclusive: -43.9% |
| CCOC(=O)c1cccc(NC(=O)CCc2c(C)nc3c4cccnc4nn3c2C)c1 | inactive: -6.36% |
| COc1ccc(NC(=O)C2CCN(S(=O)(=O)c3ccc4c(c3)NC(=O)C(C)S4)CC2)cc1 (stereo unspecified) | inconclusive: -44.8% |
| Cc1ccc(CN2C(=O)C3(SCC(=O)N3c3ccc(C)c(C)c3)c3ccccc32)cc1 (stereo unspecified) | inconclusive: -55.5% |
| COc1ccc(S(=O)(=O)N2CCCCC2)cc1NC(=O)CCCNC(=O)c1ccc(Cl)cc1 | inactive: 31.8% |
| O=C(c1cccc(S(=O)(=O)N2CCOCC2)c1)N1CCN(c2ncccn2)CC1 | inactive: 33.3% |
| N#CC(C#N)=C(N)CSc1cccc[n+]1[O-] | inconclusive: -47.2% |
| CN(CC(=O)Nc1ccccc1C(F)(F)F)C(=O)C1CCN(S(=O)(=O)c2ccc3c(c2)OCCO3)CC1 | inactive: -5.53% |
| O=C(CSCC(=O)Nc1cccc2ccccc12)Nc1cccc2ccccc12 | inactive: 41% |
| O=C(CSc1nc2nccnc2c(=O)n1CCc1c[nH]c2ccccc12)Nc1ccccc1F | inconclusive: -43.1% |
| O=C(CSc1nc2ccccc2n1Cc1ccccc1Cl)N/N=C/c1ccccc1C(=O)O | inconclusive: -45.7% |
| Cc1ccc(NS(=O)(=O)c2ccc3c(c2)CCC(=O)N3)cc1C | inactive: -15.6% and inactive: 2% |
| COc1cc(NC(=O)c2ccc(C(C)(C)C)cc2)c(OC)cc1NC(=O)CN1CCCCC1 | inconclusive: -41.2% |
| COc1ccc(/C=N/Nc2nnc(-c3ccccc3)c(=O)[nH]2)cc1 | active: -99.6% |
| Cc1ccc(C(=O)C[n+]2cc(-c3ccccc3)n3c2CCCCC3)cc1 | inconclusive: -53.7% and active: -92.1% |
| Cc1cc(C)nc(N/N=C/c2cccc3ccccc23)n1 | inactive: 0.211% |
| COc1ccc(OC)c(NC2=C(c3ccccc3)C(=O)c3ccccc32)c1 | active: -62.5% |
| COc1ccccc1C(=O)COC(=O)C1CCN(S(=O)(=O)c2ccccc2)CC1 | inactive: -33.2% |

| SMILES | activity change, negative = inhibition |
| --- | --- |
| N#Cc1nc(COc2ccccc2F)oc1N1CCCCCC1 | inactive: -30.8% |
| COc1ccccc1NS(=O)(=O)c1cccc(NC(=O)NC2CCCCC2)c1 | active: -75.8% |
| NNC(=O)c1[nH]c2ccc([N+](=O)[O-])cc2c1-c1ccccc1 | active: -88.7% |
| CN1C[C@@H]2C[C@@H](c3cccn3-c3nccs3)N3CCC[C@@]23C1=O | inconclusive: -58.5% |
| Cc1[nH]n2c(=O)c3c(nc2c1-c1ccc(F)cc1)CCCC3 | inconclusive: -59.7% |
| CC1(C(=O)NCc2ccccc2Br)CCN1Cc1ccc(-c2ccccc2)o1 (stereo unspecified) | inconclusive: -57.4% |
| CCC(=O)/C=C1\Sc2ccc(OC)cc2N1CCO | inconclusive: -44.5% |
| Cc1ccc(CNC(=O)COC(=O)CCC(=O)c2cccs2)cc1 | inconclusive: -42.9% |
| O=C(NC1CCCCC1)C(c1ccc2ncccc2c1)N(Cc1cccs1)C(=O)c1cccs1 (stereo unspecified) | inconclusive: -47.8% |
| C=CCn1c(O)c(C=Nc2ccc(OC)cc2C)c(=O)[nH]c1=O | inconclusive: -45.8% |
| COc1ccc(NC(=O)COC(=O)c2cccn2C)cc1S(=O)(=O)N1CCCCC1 | active: -69.1% |
| Cc1ccc(Oc2ncccc2NC(=O)CC2(CC(=O)O)CCCC2)c2c1CCC2 | inactive: 20.2% |
| COc1cc(C(=O)NCC(c2ccco2)N2CCCC2)ccc1OCc1ccc(Cl)cc1Cl (stereo unspecified) | inconclusive: -45.4% |
| C=CCn1c(SCc2nc3ccccc3c(=O)[nH]2)nc2scc(C3CC3)c2c1=O | inactive: -36.6% |
| Cc1ccccc1-n1c(SCC(=O)Nc2ccccc2)nc2nc3c(cc2c1=O)CCCC3 | active: -79.7% |
| COc1ccc(NC(C)=O)cc1NC(=O)CN1CCN(C2c3ccccc3-c3ccccc32)CC1 | inconclusive: -55.1% |
| Cc1ccc(C(=O)Nc2c(-c3ccccc3)nc3ccccn23)cc1C | inactive: -0.998% |
| COc1ccc(-c2csc(NC(=O)CN3C(=O)C4CCCCC4C3=O)n2)cc1OC (stereo unspecified) | inactive: -4.7% |
| COC(=O)C(Cc1ccc(N(CCCl)CCCl)cc1)N=Cc1ccccc1O (stereo unspecified) | active: -103% |
| CCCC(=O)Nc1cc(=O)n(C)c(=O)n1C | inconclusive: -40.2% |
| N=C(N)SCCc1cnc[nH]1 | inactive: -13.8% |
| O=C(CCCOc1ccc(Cl)cc1Cl)N1CCN(c2ccccn2)CC1 | inactive: 21.3% |

| SMILES | activity change, negative = inhibition |
| --- | --- |
| CN(C)CCNC(=O)C1CCN(c2nc3ccccc3[nH]2)CC1 | inconclusive: 0% |
| COc1ccc(OCCOC(=O)c2cccs2)cc1 | inactive: 8.01% |
| Cc1cc(C)n(CCc2nc(-c3ccco3)cs2)n1 | active: -105% |
| Cc1c(C(=O)O)c(C(=O)O)c2n1CCS2 | inconclusive: -51.1% |
| O=[N+]([O-])c1ccc(C(O)C23CN4CN(CN(C4)C2)C3)cc1 (stereo unspecified) | inconclusive: -55.8% |
| Cc1csc(SCC(=O)Nc2cccc(C)c2C)n1 | active: -63.5% |
| COC(=O)C1=C(c2cccc(OCc3ccccc3)c2)C[C@@H]2CC[C@H]1N2C(=O)NCc1ccccc1OC | active: -88.4% |
| O=[N+]([O-])c1ccc(N/N=C2\CC3CC=CC23)cc1 (stereo unspecified) | inactive: -12.7% |
| Cn1nccc1NS(=O)(=O)c1ccc(NC(=O)C(F)(F)F)cc1 | inactive: 5.75% |
| CCOc1ccc(CCNC(=O)CCc2c(C)nc3c(c(C)nn3-c3ccccc3)c2C)cc1OCC | inactive: 11% |
| CC(C)(C)c1ccc(-c2cc(N)n[nH]2)cc1 | inconclusive: -51.4% |
| CCN1C(=NCc2ccco2)N[C@@H](c2cccc(F)c2)C(C(=O)OC)=C1C | inconclusive: -41% |
| Cc1ccc(S(=O)(=O)N2CCN(C(=O)C3CCN(c4ncnc5sc(C)c(C)c45)CC3)CC2)c(C)c1 | active: -80.2% |
| O=C(Nc1ccc(N2CCOCC2)cc1)c1cnccn1 | inconclusive: -46.5% |
| Cc1ccccc1C(=O)N1CCC(c2nc3ccccc3s2)CC1 | inactive: -16.1% |
| CN(C)c1ccc(Nc2nc(N)c([N+](=O)[O-])c(N3CCOCC3)n2)cc1 | inconclusive: -41.2% |
| CN(Cc1ccccc1)C1CCCN(C(=O)c2ccc(Cl)s2)C1 (stereo unspecified) | inconclusive: -43.7% |
| Cc1ccc(CS(=O)(=O)c2nc3c(c(N(C)C)n2)CCCC3)cc1 | active: -92.9% |
| CN(C1CCCCC1)S(=O)(=O)c1ccc(S(=O)(=O)N(CC(=O)Nc2ccccc2)C2CC2)cc1 | inconclusive: -43.6% |
| COC12CCC3(CC1C(C)(O)C(C)(C)C)[C@H]1Cc4ccc(OC5OC(C(=O)O)[C@@H](O)C(O)[C@H]5O)c5c4[C@@]3(CCN1CC1CC1)C2O5 (stereo partly specified) | inconclusive: -44.9% |
